Source: publication PMC11375530
Construct, isoform or probe ends are uncertain for at least one entry. The comparison behind a weaker result is the experiment's own reference, which may not be listed here. For part of these data: At least one verdict was read from the data and is not stated in words by the source. For part of these data: At least one result comes from cells or an extract, where the contact may be indirect.

Protein sequences, listed by entry. Tags and fused reporters are not part of them.
UniProt O15527, whole entry: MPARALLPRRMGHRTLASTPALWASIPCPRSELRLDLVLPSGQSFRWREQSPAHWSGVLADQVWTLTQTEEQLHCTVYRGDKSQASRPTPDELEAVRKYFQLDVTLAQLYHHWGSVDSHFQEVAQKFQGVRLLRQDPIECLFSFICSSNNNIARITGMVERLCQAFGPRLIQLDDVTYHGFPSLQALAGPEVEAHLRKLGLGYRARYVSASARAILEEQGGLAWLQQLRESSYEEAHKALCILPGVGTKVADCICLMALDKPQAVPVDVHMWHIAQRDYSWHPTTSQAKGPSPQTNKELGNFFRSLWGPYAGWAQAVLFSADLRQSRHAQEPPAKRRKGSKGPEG
UniProt Q04206, whole entry: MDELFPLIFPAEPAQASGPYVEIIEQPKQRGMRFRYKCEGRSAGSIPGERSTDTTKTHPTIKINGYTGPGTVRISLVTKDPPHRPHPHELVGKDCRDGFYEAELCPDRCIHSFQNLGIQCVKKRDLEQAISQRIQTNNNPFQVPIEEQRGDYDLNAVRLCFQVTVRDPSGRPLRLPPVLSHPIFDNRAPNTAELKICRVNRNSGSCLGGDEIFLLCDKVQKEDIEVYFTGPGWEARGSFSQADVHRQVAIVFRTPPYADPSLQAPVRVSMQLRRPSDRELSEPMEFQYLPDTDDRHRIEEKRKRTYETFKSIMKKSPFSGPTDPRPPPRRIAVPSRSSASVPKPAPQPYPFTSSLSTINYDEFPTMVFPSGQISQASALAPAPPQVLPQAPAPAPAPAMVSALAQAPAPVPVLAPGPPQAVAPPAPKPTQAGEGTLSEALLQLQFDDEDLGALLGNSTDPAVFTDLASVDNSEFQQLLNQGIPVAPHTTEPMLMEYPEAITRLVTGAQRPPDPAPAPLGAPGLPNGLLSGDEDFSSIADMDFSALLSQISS

Columns and labels:
[1] = target: OGG1 (8-oxoguanine DNA glycosylase) (UniProt O15527); experiment: EMSA; settings: EMSA: DNA-binding buffer (composition not given), 10 min on ice then 10 min at 37 C, 7% native PAGE in 1x TBE, commercial protein, label: 5'-FAM on strand 2
[2] = target: NF-kB p65 (Homo sapiens (A549 cells)) (UniProt Q04206); experiment: EMSA; settings: nuclear extract, EMSA: DNA-binding buffer (composition not given), 10 min on ice then 10 min at 37 C, 7% native PAGE in 1x TBE, protein in an extract, label: 5'-FAM on strand 2
[3] = target: NF-kB p65 (Homo sapiens (A549 cells)) (UniProt Q04206); experiment: pull-down; settings: nuclear extract of H2O2-treated A549 cells, immunoblot, pull-down: 4 C, 12 h, 1 mM PMSF, protein in an extract

“CGGGCGGGCGGGAGGGCTGGCGGGCGGCCCCC (double strand) [8-oxoG-SYT7 (FAM)]”: binds more weakly ([1]; 10 uM Th5487 (inhibits binding), 100 ng OGG1, 8-oxoG at position 12 of strand 1 (printed ...CGGoGAGGG...)); binds ([2]; band lost with anti-NF-kB antibody, 8-oxoG at position 12 of strand 1 (printed ...CGGoGAGGG...)).
“CGGGCGGGCGGGAGGGCTGGCGGGCGGCCCCC (double strand) [Biotin-8-oxoG-oligo]”: binds ([3]; 8-oxoG at position 12 of strand 1 (printed ...CGGoGAGGG...), PBS …).
“CGGGCGGGCGGGAGGGCTGGCGGGCGGCCCCC (double strand) [Biotin-G-oligo]”: binds more weakly ([3]; PBS washes).
“CGGGCGGGCGGGAGGGCTGGCGGGCGGCCCCC (double strand) [G-SYT7 (FAM)]”: binds more weakly [1]; binds more weakly [2].
